This passage reports binding results from doi:10.1101/2024.09.05.611512.

To fix the notation:
B1: annexin A7 (protein, UniProt P20073 1-488)
chain: MSYPGYPPTGYPPFPGYPPAGQESSFPPSGQYPYPSGFPPMGGGAYPQVPSSGYPGAGGYPAPGGYPAPGGYPGAPQPGGAPSYPGVPPGQGFGVPPGGAGFSGYPQPPSQSYGGGPAQVPLPGGFPGGQMPSQYPGGQPTYPSQINTDSFSSYPVFSPVSLDYSSEPATVTQVTQGTIRPAANFDAIRDAEILRKAMKGFGTDEQAIVDVVANRSNDQRQKIKAAFKTSYGKDLIKDLKSELSGNMEELILALFMPPTYYDAWSLRKAMQGAGTQERVLIEILCTRTNQEIREIVRCYQSEFGRDLEKDIRSDTSGHFERLLVSMCQGNRDENQSINHQMAQEDAQRLYQAGEGRLGTDESCFNMILATRSFPQLRATMEAYSRMANRDLLSSVSREFSGYVESGLKTILQCALNRPAFFAERLYYAMKGAGTDDSTLVRIVVTRSEIDLVQIKQMFAQMYQKTLGTMIAGDTSGDYRRLLLAIVGQ
B2: annexin A1 (protein, UniProt P04083 1-346)
chain: MAMVSEFLKQAWFIENEEQEYVQTVKSSKGGPGSAVSPYPTFNPSSDVAALHKAIMVKGVDEATIIDILTKRNNAQRQQIKAAYLQETGKPLDETLKKALTGHLEEVVLALLKTPAQFDADELRAAMKGLGTDEDTLIEILASRTNKEIRDINRVYREELKRDLAKDITSDTSGDFRNALLSLAKGDRSEDFGVNEDLADSDARALYEAGERRKGTDVNVFNTILTTRSYPQLRRVFQKYTKYSKHDMNKVLDLELKGDIEKCLTAIVKCATSKPAFFAEKLHQAMKGVGTRHKALIRIMVSRSEIDMNDIKAFYQKMYGISLCQAILDETKGDYEKILVALCGGN
B3: annexin A6 (protein, UniProt P08133 1-673)
chain: MAKPAQGAKYRGSIHDFPGFDPNQDAEALYTAMKGFGSDKEAILDIITSRSNRQRQEVCQSYKSLYGKDLIADLKYELTGKFERLIVGLMRPPAYCDAKEIKDAISGIGTDEKCLIEILASRTNEQMHQLVAAYKDAYERDLEADIIGDTSGHFQKMLVVLLQGTREEDDVVSEDLVQQDVQDLYEAGELKWGTDEAQFIYILGNRSKQHLRLVFDEYLKTTGKPIEASIRGELSGDFEKLMLAVVKCIRSTPEYFAERLFKAMKGLGTRDNTLIRIMVSRSELDMLDIREIFRTKYEKSLYSMIKNDTSGEYKKTLLKLSGGDDDAAGQFFPEAAQVAYQMWELSAVARVELKGTVRPANDFNPDADAKALRKAMKGLGTDEDTIIDIITHRSNVQRQQIRQTFKSHFGRDLMTDLKSEISGDLARLILGLMMPPAHYDAKQLKKAMEGAGTDEKALIEILATRTNAEIRAINEAYKEDYHKSLEDALSSDTSGHFRRILISLATGHREEGGENLDQAREDAQVAAEILEIADTPSGDKTSLETRFMTILCTRSYPHLRRVFQEFIKMTNYDVEHTIKKEMSGDVRDAFVAIVQSVKNKPLFFADKLYKSMKGAGTDEKTLTRIMVSRSEIDLLNIRREFIEKYDKSLHQAIEGDTSGDFLKALLALCGGED
B4: annexin A4 (protein, UniProt P09525 1-319)
chain: MATKGGTVKAASGFNAMEDAQTLRKAMKGLGTDEDAIISVLAYRNTAQRQEIRTAYKSTIGRDLIDDLKSELSGNFEQVIVGMMTPTVLYDVQELRRAMKGAGTDEGCLIEILASRTPEEIRRISQTYQQQYGRSLEDDIRSDTSFMFQRVLVSLSAGGRDEGNYLDDALVRQDAQDLYEAGEKKWGTDEVKFLTVLCSRNRNHLLHVFDEYKRISQKDIEQSIKSETSGSFEDALLAIVKCMRNKSAYFAEKLYKSMKGLGTDDNTLIRVMVSRAEIDMLDIRAHFKRLYGKSLYSFIKGDTSGDYRKVLLVLCGGDD

No constants are given. Whether binding was seen depends on the method and setting. Binding seen in cells or lysates may run through a third protein. Here binding means that the protein was enriched with, or labelled near, the bait; the list need not be complete.

This test has as its target CAPN2[C105S]-3xFlag-6xHis in complex with calpain small subunit CAPNS1(86–268). In words: affinity purification with mass spectrometry; 3xFlag peptide, dCAPN1-3xFlag or dCAPN2-3xFlag bait on anti-Flag agarose beads; HCT116 cytosol with 2 mM CaCl2 and E64; EGTA elutions analysed by mass spectrometry; only the target purified.
For B1, the binding result is reported as “binds”.
With B2, the binding entry is “binds”.
With B3, the binding result is on record as “binds”.
Consider B4, for which the binding entry was “binds”.
